Data as given in patent US20260193229A1, “BRISC DEUBIQUITINATING ENZYME INHIBITORS” (THE TRUSTEES OF THE UNIVERSITY OF PENNSYLVANIA, priority 2022, published 2026).
At least one compound was matched to its structure with a doubt left.

Experiments:
BRISC = target: T1, BRISC (Homo sapiens, UniProt P46736+Q15018); assay: BRISC DUB inhibition assay with quenched K63-linked di-ubiquitin substrate (TAMRA fluorescence); format: biochemical
T1 construct: made in house; host or cells: insect cells (MultiBac baculovirus)
Experimental: High throughput screening. A baculoviral expression system was established to purify milligram quantities of the entire BRISC complex from insect cells. The MultiBac system was used to clone all 4 components of the BRISC complex into one vector which was then packaged into the baculovirus genome using the methods described in Zeqiraj et al., 2015 (Mol. Cell).
The assay buffer included: 50 mM HEPES-NaOH, pH 7.0; 100 mM NaCl; 1 mM DTT; 1 mg/ml BSA; and 0.03% Brij-35. BRISC was assayed at 1 nM (final concentration) with the substrate at 500 nM (final concentration). The final reaction volume was 20 μl in each 384 plate well (Corning, #3573; black, low flange, flat bottom) with a final concentration of compounds of 10 μM.
A 5 ml of enzyme solution with BRISC at 2 nM in assay buffer was made by adding 10 μl of BRISC working stock (1 μM) to 5 ml of assay buffer. […] The plate was then incubated for 30 min at room temperature in the dark and read with settings suitable for detecting TAMRA fluorescence (excitation wavelength of 540 nm and emission wavelength of 580 nm). A PHERAStar plate (BMG labtech) reader was used with a gain value of 570. […]
The activities of the compounds disclosed in the present disclosure in inhibiting BRCC36 enzyme activity was measured in accordance with the method disclosed in Example 2.

interferon signaling = assay: Interferon signaling in response to LPS in human cells; format: cell-based; settings: 5 μM
BRCC36 enzyme activity = target: T2, BRCC36 enzyme activity (Homo sapiens, UniProt P46736+Q15018); assay: Mode of inhibition: increasing di-Ubiquitin substrate and free Zn2+; format: biochemical
T2 construct: made in house; host or cells: insect cells (MultiBac baculovirus)

CS(=O)(=O)n1cc(NC(=O)c2c(Cl)cccc2Cl)c(C(=O)NC2CCNCC2)n1 [Compound 2, 4-(2,6-dichlorobenzamido)-1-(methylsulfonyl)-N-(piperidin-4-yl)-1H-pyrazole-3-carboxamide]
BRISC potency relative to Compound 1 (BRISC): equipotent to Compound 1
reduction of interferon signaling in response to LPS (interferon signaling): remarkable efficacy at reducing interferon signaling
mode of inhibition (BRCC36 enzyme activity): non-competitive inhibitors
